Measurements from article doi:10.1101/330993.

Chains of the proteins cited; added tags and fusions are not shown. Lines headed by an entry give the natural chain unless they say otherwise; changes in a name come on top.
UniProt Q9ERZ8: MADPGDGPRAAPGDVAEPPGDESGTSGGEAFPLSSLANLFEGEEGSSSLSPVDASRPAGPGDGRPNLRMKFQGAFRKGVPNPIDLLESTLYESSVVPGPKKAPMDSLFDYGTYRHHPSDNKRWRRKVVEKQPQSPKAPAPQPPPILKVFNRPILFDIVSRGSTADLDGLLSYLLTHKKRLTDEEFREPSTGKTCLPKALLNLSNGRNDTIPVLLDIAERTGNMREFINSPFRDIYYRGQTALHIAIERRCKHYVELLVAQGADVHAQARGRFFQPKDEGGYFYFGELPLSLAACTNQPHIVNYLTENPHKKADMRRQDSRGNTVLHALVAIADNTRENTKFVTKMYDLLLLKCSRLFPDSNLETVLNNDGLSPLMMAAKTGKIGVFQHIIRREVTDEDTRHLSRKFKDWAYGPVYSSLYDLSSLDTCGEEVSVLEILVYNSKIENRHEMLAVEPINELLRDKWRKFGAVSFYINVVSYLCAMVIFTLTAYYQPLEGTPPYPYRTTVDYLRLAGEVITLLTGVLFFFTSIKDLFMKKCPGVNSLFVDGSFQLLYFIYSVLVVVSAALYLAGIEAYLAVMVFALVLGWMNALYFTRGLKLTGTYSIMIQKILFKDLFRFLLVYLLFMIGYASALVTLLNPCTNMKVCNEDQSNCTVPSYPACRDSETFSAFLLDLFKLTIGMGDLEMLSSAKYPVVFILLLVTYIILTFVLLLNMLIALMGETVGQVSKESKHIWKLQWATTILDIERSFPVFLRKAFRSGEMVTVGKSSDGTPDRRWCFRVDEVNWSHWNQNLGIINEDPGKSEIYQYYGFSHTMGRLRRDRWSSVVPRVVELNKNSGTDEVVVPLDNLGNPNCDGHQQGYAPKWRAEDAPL

Columns and labels:
[1] = target: T1, His-tagged Mfn1 (UniProt Q8R4Z9); assay: pull-down
T1 sequence: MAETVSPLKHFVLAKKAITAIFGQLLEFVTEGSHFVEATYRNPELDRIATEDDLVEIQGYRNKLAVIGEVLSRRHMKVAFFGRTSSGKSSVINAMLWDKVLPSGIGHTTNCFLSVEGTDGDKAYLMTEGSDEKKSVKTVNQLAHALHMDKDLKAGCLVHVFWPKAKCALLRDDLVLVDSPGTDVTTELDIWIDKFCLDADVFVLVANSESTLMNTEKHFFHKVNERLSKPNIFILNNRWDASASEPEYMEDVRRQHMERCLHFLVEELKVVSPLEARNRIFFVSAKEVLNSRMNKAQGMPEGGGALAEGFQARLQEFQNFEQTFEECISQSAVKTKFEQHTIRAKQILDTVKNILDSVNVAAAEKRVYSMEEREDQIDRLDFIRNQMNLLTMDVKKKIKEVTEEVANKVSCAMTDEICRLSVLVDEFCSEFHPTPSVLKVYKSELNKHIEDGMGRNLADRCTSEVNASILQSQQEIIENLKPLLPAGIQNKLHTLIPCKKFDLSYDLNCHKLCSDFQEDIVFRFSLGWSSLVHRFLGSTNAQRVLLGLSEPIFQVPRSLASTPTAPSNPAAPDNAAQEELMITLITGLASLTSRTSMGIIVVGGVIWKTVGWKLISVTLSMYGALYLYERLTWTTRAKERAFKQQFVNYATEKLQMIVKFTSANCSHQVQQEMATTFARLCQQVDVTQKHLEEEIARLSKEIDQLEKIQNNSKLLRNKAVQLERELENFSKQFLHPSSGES

[2] = target: T2, His-tagged Mfn2 (UniProt Q8R500); assay: pull-down
T2 sequence: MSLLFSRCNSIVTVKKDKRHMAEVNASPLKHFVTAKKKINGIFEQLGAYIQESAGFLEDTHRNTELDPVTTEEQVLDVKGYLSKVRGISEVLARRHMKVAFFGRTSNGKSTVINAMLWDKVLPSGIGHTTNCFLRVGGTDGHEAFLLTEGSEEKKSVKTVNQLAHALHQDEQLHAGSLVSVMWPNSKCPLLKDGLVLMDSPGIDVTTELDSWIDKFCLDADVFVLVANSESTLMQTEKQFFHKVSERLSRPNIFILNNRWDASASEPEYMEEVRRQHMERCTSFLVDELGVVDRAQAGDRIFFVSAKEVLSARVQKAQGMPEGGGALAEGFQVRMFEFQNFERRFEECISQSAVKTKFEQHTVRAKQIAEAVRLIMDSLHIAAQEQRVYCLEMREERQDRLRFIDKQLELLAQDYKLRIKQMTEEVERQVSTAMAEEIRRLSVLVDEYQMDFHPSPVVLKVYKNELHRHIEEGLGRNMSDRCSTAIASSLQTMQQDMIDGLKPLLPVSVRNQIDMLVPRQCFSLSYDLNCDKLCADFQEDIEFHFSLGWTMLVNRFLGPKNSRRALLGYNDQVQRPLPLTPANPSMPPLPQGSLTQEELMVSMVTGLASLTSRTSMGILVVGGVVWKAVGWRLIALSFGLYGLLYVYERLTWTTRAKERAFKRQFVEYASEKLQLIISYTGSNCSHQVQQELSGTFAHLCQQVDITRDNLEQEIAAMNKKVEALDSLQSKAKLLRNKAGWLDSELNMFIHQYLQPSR

binding [1]: binds
binding [2]: binds
Substance: MBP-TRPV4-Ct (C-terminal cytoplasmic domain of TRPV4 fused with MBP) (from UniProt Q9ERZ8) (domain or fragment)

No constants are given. Whether binding was seen depends on the method and setting. Binding seen in cells or lysates may run through a third protein. Binding can be weak; no strength is given. Sequences can lack the tags named with a protein.
